Substitutions are numbered along the chain they refer to. Results are given in words; binding and its absence hold for the method and conditions named. Binding calls can cover weak binding; strength is not graded here. Blank lines part the entries; values can stand above or below the binder they belong to.
Assays:
human IL-33 (human) [1] = assay: MSD-SET (similar procedure), 25 C
human IL-33 (human) [2] = assay: affinity studies of Example 22, method and antigen not named

binding (human IL-33 (human) [1]): binds
binding (human IL-33 (human) [2]): binds
B1: 22A06-429 (antibody, V domains shown)
VH: QVQLVQSGAEVKKPGASVKVSCKASGYTFISYGMHWVRQAPGQGLEWMGEINPHGGSTSYAQKFQGRVTMTRDTSTSTVYMELSSLRSEDTAVYYCARPSAAYSHYLGIDMWGRGTLVTVSS
VL: DIQMTQSPSSVSASVGDRVTITCRASQGISSWLAWYQQKPGKAPKLLIYAASRLQSGVPSRFSGSGSGTDFTLTISSLQPEDFATYYCQQANVFPLTFGGGTKVEIKR

binding (human IL-33 (human) [1]): binds
binding (human IL-33 (human) [2]): binds
B2: 22A06-502 (antibody, V domains shown)
VH: B1 VH with M111L
VL: B1 VL with A25T, A34S, R53S, N92H, F94L

binding (human IL-33 (human) [1]): binds
binding (human IL-33 (human) [2]): binds
B3: 22A06-481 (antibody, V domains shown)
VH: B1 VH with I109L, M111I
VL: B1 VL with S31P, A51G, R53S
